Measured data: PubChem BioAssay AID652259 (Drosophila RNAi Screening Center, 2013)

Test: 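Identify new Wingless signalling regulators in fly cells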 (primary screen)
Cells: Drosophila clone 8 imaginal disc epithelial cells
Knock-down reagent: long dsRNA against Drosophila genes
Conditions: pathway stimulated by co-transfected Wingless expression plasmid
Measured: 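Firefly luciferase from a tcf-site Wingless reporter, measured alongside co-transfected Renilla luciferase that tracks transfection; pathway stimulated by a Wingless plasmid; the firefly-to-Renilla ratio is not deposited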
Scale: firefly reporter light: higher = more Wg reporter light, before normalisation; Renilla control light: higher = more transfected or surviving cells
Call rule: 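a knock-down is a candidate when at least two out of four statistical tests show it departing from its plate mean; one test alone signals a weak candidate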
Meaning of the calls: active = candidate regulator (raises or lowers reporter); inactive = not a candidate
The screen tested about 22,000 reagents; below is an unselected part of those that have a named target and a result. In the full data, 233 (1.1%) are marked active. 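Light values are raw, unnormalised plate reads; the ratio scores behind the reporter calls were not deposited.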 Reagents against one gene are numbered here. A plus sign joins genes that one reagent is predicted to hit. The record does not give: the amount of reagent, the time to read-out, the dose of the treatment.

gene knocked down,reagent,"reporter change call, replicate 1","firefly reporter light, replicate 1","firefly reporter light, replicate 2","Renilla control light, replicate 1","Renilla control light, replicate 2",activity call
TAF1C-like,1,,12939,,4481,,inactive
CG5440,1,,4481,5185,1731,2507,inactive
Cog8 (Component of oligomeric golgi complex 8),1,,6730,,3869,,inactive
chrb (charybde),1,,8038,,4096,,inactive
CG11095,1,,1944,4605,556,2043,inactive
achi (achintya),1,,5881,,2055,,inactive
CG9396,1,,11747,,2331,,inactive
CG11029,1,,2552,6136,891,2055,inactive
Vps45 (Vacuolar protein sorting 45),1,,8288,,2829,,inactive
CG30480,1,,3859,,2091,,inactive
CG12608,1,,2247,8072,1328,2673,inactive
Nach,1,,5584,,1818,,inactive
Jon99Ciii (Jonah 99Ciii),1,,4230,,3176,,inactive
mAcon1 (Mitochondrial aconitase 1),1,,2644,6212,640,2528,inactive
Tsp3A (Tetraspanin 3A),1,,18341,,14625,,inactive
Pde11 (Phosphodiesterase 11),1,,4950,,1533,,inactive
Pde11 (Phosphodiesterase 11),2,,3668,10509,505,3191,inactive
CG33285,1,,3067,,1344,,inactive
CR43105 (pseudo),1,,22144,,14117,,inactive
ADD1 (ADD domain-containing protein 1),1,,6336,,2181,,inactive
CG31675,1,,24256,,12264,,inactive
Nup154 (Nucleoporin 154kD),1,,14181,,1485,,inactive
mRpL1 (mitochondrial ribosomal protein L1),1,,12230,,3239,,inactive
Dp1 (Dodeca-satellite-binding protein 1),1,,15323,,4936,,inactive
BomT3 (Bomanin Tailed 3),1,,3760,,1803,,inactive
BomT3 (Bomanin Tailed 3),2,,36793,,7395,,inactive
Zcchc7 (Zinc finger CCHC-type containing 7),1,,4490,,1483,,inactive
RYBP (Ring and YY1 Binding Protein),1,,10481,,3640,,inactive
Acp53Ea (Accessory gland protein 53Ea),1,,5251,,2152,,inactive
Fad2,1,,4828,,1317,,inactive
Alp4 (Alkaline phosphatase 4),1,,7076,,3237,,inactive
CG34001,1,,1718,,752,,inactive
Drep1 (DNA fragmentation factor-related protein 1),1,,7494,,2329,,inactive
CG5391,1,,38643,,6673,,inactive
Nup75 (Nucleoporin 75kD),1,,12652,,3474,,inactive
CG30058 + CG34235 + CG34312,1,,14385,,11784,,inactive
KCNQ (KCNQ potassium channel),1,,3268,6987,976,2788,inactive
KCNQ (KCNQ potassium channel),2,,3568,6747,950,3139,inactive
gogo (golden goal),1,,18759,,4645,,inactive
gogo (golden goal),2,,17264,,5577,,inactive
CG13482,1,,8819,,3703,,inactive
CG17145,1,,16537,,2950,,inactive
z (zeste),1,Wg reporter activity raised,8293,13590,362,693,active
Ssadh (Succinic semialdehyde dehydrogenase),1,,3249,5873,808,1988,inactive
Thor,1,,16384,,6384,,inactive
CG18418,1,,4824,,1937,,inactive
MED28 (Mediator complex subunit 28),1,,17867,,16119,,inactive
Madm (MLF1-adaptor molecule),1,,14528,,4715,,inactive
CG31826,1,,4656,6807,1424,3104,inactive
CG14855,1,,17656,,3431,,inactive
ERp60 (Endoplasmic reticulum p60),1,,8257,,1626,,inactive
Ada1-1 + Ada1-2,1,,31640,,12560,,inactive
Ada1-1 + Ada1-2,2,,23506,,9468,,inactive
Archease,1,,32210,,5715,,inactive
ds (dachsous),1,,1892,7314,688,2204,inactive
Cyp12c1 (Cytochrome P450 12c1),1,,3035,,1345,,inactive
CG14321,1,,16193,,2555,,inactive
Capa (Capability),1,,5442,5468,1897,2218,inactive
Or33b (Odorant receptor 33b),1,,2314,6787,660,3658,inactive
CG14722,1,,4950,,2262,,inactive
CG34273,1,,2872,,583,,inactive
Mdh1 (Malate dehydrogenase 1),1,,3284,6009,1590,3173,inactive
mab-21,1,,26643,,14352,,inactive
CG11596,1,,2119,8282,1050,2269,inactive
Dh31-R (Diuretic hormone 31 Receptor),1,,5837,,1783,,inactive
Dh31-R (Diuretic hormone 31 Receptor),2,,5689,,2566,,inactive
Snx17 (Sorting nexin 17),1,,8416,,3586,,inactive
Cda4 (Chitin deacetylase-like 4),1,,14429,,10998,,inactive
Cda4 (Chitin deacetylase-like 4),2,,16160,,11042,,inactive
Cda4 (Chitin deacetylase-like 4),3,,15776,,9510,,inactive
alpha-Man-Ib (alpha-Mannosidase class I b),1,,3059,3721,1584,624,inactive
CG42232,1,,2664,3656,784,1328,inactive
CG42232,2,,3405,5521,1477,2311,inactive
CG14744,1,,3536,6989,1091,2644,inactive
CG17803,1,,20817,,4405,,inactive
CG17803,2,,6.44e5,7.31e5,2.92e5,3.50e5,inactive
Nipped-A,1,,26281,,6818,,inactive
Nipped-A,2,,3723,14236,482,3744,inactive
Nipped-A,3,,2672,9179,566,1796,inactive
Nipped-A,4,,7827,,2313,,inactive
Nipped-A,5,,7.04e5,6.61e5,2.71e5,2.52e5,inactive
Adgf-C (Adenosine deaminase-related growth factor C),1,,19433,,3155,,inactive
CG16890,1,,15337,,4726,,inactive
ND-ASHI (NADH dehydrogenase (ubiquinone) ASHI subunit),1,,17264,,9732,,inactive
Dpy-30L2 (Dpy-30-like 2),1,,8036,,3909,,inactive
CG18581,1,,2536,,1491,,inactive
CG42755 (retired record),1,,2232,,985,,inactive
CG42755 (retired record),2,,3008,,1516,,inactive
CG8135 + BBIP1,1,,4410,,1785,,inactive
CG8135 + BBIP1,2,,12230,,3579,,inactive
flip (flippy),1,,17539,,6025,,inactive
Ccdc58 (Coiled-coil domain-containing 58),1,,6629,,2694,,inactive
Cyp6v1 (Cytochrome P450 6v1),1,,9689,,7829,,inactive
